Results are given in words; binding and its absence hold for the method and conditions named. Some entries that bind do so weakly or less than the wild type.
Molecular target: connexin 43 (Cx43) of MLO-Y4 osteocytic cells (UniProt P23242)
Assay: immunofluorescence on ethanol-fixed MLO-Y4 osteocyte cells, goat anti-mouse FITC secondary

By UniProt entry, the sequences of proteins in these tests, tags left out. Residues count along the entry.
UniProt P23242, residues 2-382: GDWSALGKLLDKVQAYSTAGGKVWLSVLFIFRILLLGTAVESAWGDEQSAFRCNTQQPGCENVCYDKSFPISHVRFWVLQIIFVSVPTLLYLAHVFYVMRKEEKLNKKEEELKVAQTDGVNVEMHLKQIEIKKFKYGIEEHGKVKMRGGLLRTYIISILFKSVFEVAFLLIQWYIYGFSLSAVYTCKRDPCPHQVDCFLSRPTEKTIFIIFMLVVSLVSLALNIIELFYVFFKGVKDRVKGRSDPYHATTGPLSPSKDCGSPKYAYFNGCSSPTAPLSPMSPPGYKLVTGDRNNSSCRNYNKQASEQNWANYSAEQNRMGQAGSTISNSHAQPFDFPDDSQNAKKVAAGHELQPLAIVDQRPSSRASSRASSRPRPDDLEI

B1: mouse monoclonal antibody (M2) (antibody, V domains shown)
VH: EVQLEQPGAELVKPGASVKLSCKASGYTFTSYYMYWVKQRPGQGLEWIGGINPSNGGTNFNEKFKNKATLTVDKSSSTAYMQLSSLTSEDSAVYYCTREGNPYYTMNYWGQGTSVTVSS
VL: DIVMTQTPSSLSVSAGEKVTMSCKSSQSLLNSGNQKTYLAWYQQKPGQPPKLLIYGASTRESGVPDRFTGSGSGTDFTLTISSVQAEDLAVYYCQNDHSYPFTFGSGTKLEIKR
binding: binds

Reference: patent US20210238278A1
